For one molecule, binding results are on record in patent US20240041922A1, “METHODS AND COMPOSITIONS” (Monash University, priority 2020, published 2024).

Protein sequences, listed by entry. Tags and fused reporters are not part of them.
UniProt P51682: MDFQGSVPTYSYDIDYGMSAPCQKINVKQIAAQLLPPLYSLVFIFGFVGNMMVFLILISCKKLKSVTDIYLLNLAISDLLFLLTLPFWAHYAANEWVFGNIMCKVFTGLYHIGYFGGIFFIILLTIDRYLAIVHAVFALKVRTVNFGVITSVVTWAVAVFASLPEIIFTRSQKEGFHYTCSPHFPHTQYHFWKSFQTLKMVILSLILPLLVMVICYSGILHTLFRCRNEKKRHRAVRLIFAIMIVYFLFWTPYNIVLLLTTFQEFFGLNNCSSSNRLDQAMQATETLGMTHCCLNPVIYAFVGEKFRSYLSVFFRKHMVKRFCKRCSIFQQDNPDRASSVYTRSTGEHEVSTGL

In the experiment the target is recombinant mouse CCR5 (MyBioSource) (mouse) (UniProt P51682). The experiment in a line: competition ELISA: plate coated with mrCCR5, mrCCL4 titrated against 100 nM hrNAMPT(1); bound hrNAMPT(1) detected with a biotinylated anti-NAMPT antibody, BSA deducted.

Results are given in words; binding and its absence hold for the method and conditions named. Some entries that bind do so weakly or less than the wild type.

B1: recombinant murine CCL4/MIP-1beta (PeproTech) (ligand, mouse, UniProt P14097 24-92, looked up)
chain: APMGSDPPTSCCFSYTSRQLHRSFVMDYYETSSLCSKPAVVFLTKRGRQICANPSEPWVTEYMSDLELN
Turning to B1, the binding result is “binds”.
